# Results as given in paper PMC12263440.
# Weaker means in comparison with the reference protein, sequence or condition of that experiment. Tags and fusion partners may be left off the protein sequences shown. For some assays here: For at least one entry, the source does not settle the construct or the ends of the probe.
# What was measured:
# DEK WT (human) [1] = target: T1, DEK WT (human) (UniProt P35659); assay: EMSA; conditions: 14 mM Tris-HCl pH 7.5, 75 mM NaCl, 0.7 mM DTT, 6% glycerol, 0.25 mM EDTA, 0.05 mM PMSF, 0.001% polyglutamic acid, 0.1 mg/ml BSA, 0.1 uM nucleosome, 37 C 30 min; recombinant protein; residues 1-375; protein details: His6-SUMO removed by HRV 3C
# T1 sequence (looked up): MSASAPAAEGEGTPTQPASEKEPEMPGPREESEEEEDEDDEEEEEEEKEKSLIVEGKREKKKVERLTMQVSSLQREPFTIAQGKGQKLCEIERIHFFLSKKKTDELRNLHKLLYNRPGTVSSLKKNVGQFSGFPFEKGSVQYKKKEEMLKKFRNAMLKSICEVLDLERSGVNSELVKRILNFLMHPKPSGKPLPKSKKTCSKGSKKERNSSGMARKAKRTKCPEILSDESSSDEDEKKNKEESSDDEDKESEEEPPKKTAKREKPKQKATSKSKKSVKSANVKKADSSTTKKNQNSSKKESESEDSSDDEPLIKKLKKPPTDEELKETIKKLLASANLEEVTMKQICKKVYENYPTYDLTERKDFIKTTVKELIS
# DEK WT (human) [2] = target: T1, DEK WT (human); assay: competition with a labelled probe; conditions: nucleosome and naked DNA together, nucleosome preferred; 14 mM Tris-HCl pH 7.5, 75 mM NaCl, 0.7 mM DTT, 6% glycerol, 0.25 mM EDTA, 0.05 mM PMSF, 0.001% polyglutamic acid, 0.1 mg/ml BSA, 0.1 uM nucleosome, 37 C 30 min; recombinant protein; residues 1-375; protein details: His6-SUMO removed by HRV 3C
sequence,measurement,setting,value
ATCACGTAATATTGGCCAGCTAGGATCACAATCCCGGTGCCGAGGCCGCTCAATTGGTCGTAGACAGCTCTAGCACCGCTTAAACGCACGTACGGAATCCGTACGTGCGTTTAAGCGGTGCTAGAGCTGTCTACGACCAATTGAGCGGCCTCGGCACCGGGATTGTGATCCTAGCTGGCCAATATTACGTGAT (double strand) [193-bp naked DNA (Widom 601L)],binding result,DEK WT (human) [1],binds more weakly
same,binding result,DEK WT (human) [2],binds more weakly
